Measured values published in publication PMC7819943, “Rice protein-binding microarrays: a tool to detect cis-acting elements near promoter regions in rice”.
The list shows a part of the results.

The chains behind the UniProt entries cited, without tags or fusion partners.
UniProt Q0JBA9, entry or part of it: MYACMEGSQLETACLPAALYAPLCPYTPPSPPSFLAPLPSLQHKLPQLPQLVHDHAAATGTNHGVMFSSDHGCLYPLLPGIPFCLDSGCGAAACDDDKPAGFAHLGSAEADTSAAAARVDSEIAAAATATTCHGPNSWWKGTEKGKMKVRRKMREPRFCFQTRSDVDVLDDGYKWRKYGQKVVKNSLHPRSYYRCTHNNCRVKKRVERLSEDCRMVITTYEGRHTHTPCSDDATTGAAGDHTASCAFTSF

These sequences were tested against OsWRKY34 (Oryza sativa, UniProt Q0JBA9 1-250) (assay: protein-binding microarray (RPBM); PBS, 2% BSA, 51.3 ng/ul salmon testes DNA, 50 uM zinc acetate, 200 nM TF, 25 C, 1 h; high values mean tight binding). Conditions: protein: recombinant; tags: N-terminal polyhistidine and DsRed monomer fusion (pET32a); label: CyDye5-dUTP incorporated in the synthesized complementary strand; 3' TTTTT single-stranded linker to array surface; dsDNA, one strand shown.
In short: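 Binding signal is defined as the fluorescence intensity of each feature in arbitrary units, read on an Axon 4000B scanner. Transcription factors with N-terminal polyhistidine and DsRed fusions came from E. coli BL21-CodonPlus and were purified on Ni–NTA. They were incubated at 200 nM for 1 h at 25 °C on a custom Agilent array that had been made double-stranded with Cy5-dUTP, with 50 µM zinc acetate present, and the array was washed.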

Sequence | binding signal
TTTGGGCTTTTGGCTGGACGCGTCACGCGCGCGTTATTATCGGAGTCACCTAGTGCAG | 8340 fluorescence intensity (a.u.)
ATTAAGCATGGACTAGAATAGTCCACATGTTGTATTTTTTCGGAGTCACCTAGTGCAG | 8440 fluorescence intensity (a.u.)
CTCTCTTTCGCAGAAATCCTGGGCGCCTCTCTGTCAGTTTCGGAGTCACCTAGTGCAG | 10200 fluorescence intensity (a.u.)
GGGCTTGTTGGGGTTGCTGTGGTAGCCGGGAGGGAGGGGACGGAGTCACCTAGTGCAG | 28500 fluorescence intensity (a.u.)
GCTCGCTCGGTCGCTCGTTCCATTTGGGTTTGACACCTCACGGAGTCACCTAGTGCAG | 8900 fluorescence intensity (a.u.)
TTGATTGCAACGTTTGACCACTTGTCTTATTTTTTTTTTGCGGAGTCACCTAGTGCAG | 9780 fluorescence intensity (a.u.)
TCTTCTGCCGCTCGTTTTCCATTGCCGACGCGCAGCACGCCGGAGTCACCTAGTGCAG | 8480 fluorescence intensity (a.u.)
ATCAAACCCATCAAAGATGCGCATGTCTGCCATTGGCTCTCGGAGTCACCTAGTGCAG | 8150 fluorescence intensity (a.u.)
ACACCCAAAATTTTTCATTTCTCGCGAACTAAACGGGGCCCGGAGTCACCTAGTGCAG | 8120 fluorescence intensity (a.u.)
TTTTCTTTTCTTCTTCTTTTCGTTCTTCTTGGATAATGCTCGGAGTCACCTAGTGCAG | 12700 fluorescence intensity (a.u.)
ACATCAAAACTTTCTACACACATAAATTTTTAACTTTTCCCGGAGTCACCTAGTGCAG | 9600 fluorescence intensity (a.u.)
TGTTTGTGTGGCATCTTTTTTTTTTCGTGTTTGCGTCGCACGGAGTCACCTAGTGCAG | 12700 fluorescence intensity (a.u.)
TCACTTTATCTATTCCTATTACATTTATCTTTGCCTTTTACGGAGTCACCTAGTGCAG | 10800 fluorescence intensity (a.u.)
GCCACCGATCCGCCCGTCCCTGCTCTGGGCTTGCCGCCTTCGGAGTCACCTAGTGCAG | 8870 fluorescence intensity (a.u.)
ACCCGTTGCAACGCACGGGCATTTTTCTAGTCCATTATAACGGAGTCACCTAGTGCAG | 9180 fluorescence intensity (a.u.)
GATGTTCATTTTCTCTGCAGGGTGTAGGTCTATTGTCGTCCGGAGTCACCTAGTGCAG | 10500 fluorescence intensity (a.u.)
CACCGCACCACTGTCTCGTCGACTCCGCTGCTCTACAACGCGGAGTCACCTAGTGCAG | 9690 fluorescence intensity (a.u.)
CAGTTCCCTGCTATAACATATTCTTTGTTTTATGTGGCTACGGAGTCACCTAGTGCAG | 8150 fluorescence intensity (a.u.)
CGGCGGGGATCGAGCTAGGGTTTCTGCAGTTGTTTTTTATCGGAGTCACCTAGTGCAG | 11600 fluorescence intensity (a.u.)
AAAACTTATGACTTTCATTTTCAATCTTGGCCACTTGTATCGGAGTCACCTAGTGCAG | 11000 fluorescence intensity (a.u.)
GTCTATTTACCTCTCAGATTATAAACCGCACCCAAAATTTCGGAGTCACCTAGTGCAG | 8410 fluorescence intensity (a.u.)

Sequence | binding signal
TTGGACGCTTAGGTGCTTGTTGCTTATTGGTGGGTGTAAACGGAGTCACCTAGTGCAG | 9170 fluorescence intensity (a.u.)
CCGATCCAATCCGTCGCCGTGCCGCCTGCTATTGCTCCAACGGAGTCACCTAGTGCAG | 8600 fluorescence intensity (a.u.)
TTATATTCTATGCTCTGGATCTACACATATCTGCTGTGTGCGGAGTCACCTAGTGCAG | 8650 fluorescence intensity (a.u.)
TTCAGTCAATTTATAGTTGGTTGTTGAGAGGATTTAGAATCGGAGTCACCTAGTGCAG | 9160 fluorescence intensity (a.u.)
AGGGTCTATTTTTATAAATCTTTTCGCCGATATAATATTTCGGAGTCACCTAGTGCAG | 9150 fluorescence intensity (a.u.)
GCAGGTCAATAGTATGTGTGATTTAGTTTGACCAGGGAGGCGGAGTCACCTAGTGCAG | 11800 fluorescence intensity (a.u.)
TTCGAACTTTTCTATTGCAATATTCTCCAGCTTAAGTTTCCGGAGTCACCTAGTGCAG | 8430 fluorescence intensity (a.u.)
ACACCTTCCCCACCATCCTCCTGCCTTCCGTGCGCGGTCCCGGAGTCACCTAGTGCAG | 9080 fluorescence intensity (a.u.)
CCCGCTATCCTGCCAAATCACTGATCTGCCCTCATGCCATCGGAGTCACCTAGTGCAG | 14100 fluorescence intensity (a.u.)
GGCACCGGCGGAGGGGCGCGGGAGGGGAGGCGGCGGCGAGCGGAGTCACCTAGTGCAG | 15600 fluorescence intensity (a.u.)
AGTCATCACCATCTCTATAGTGCATCCGGAGAGATCGATCCGGAGTCACCTAGTGCAG | 8740 fluorescence intensity (a.u.)
ATAATGGTTTGTTATCTTCTCTGAACTGGTTCGTTTCTAACGGAGTCACCTAGTGCAG | 8250 fluorescence intensity (a.u.)
GCCGTATTTGTTTTTTTGGGATTTGGGGTTTGGATACTTGCGGAGTCACCTAGTGCAG | 18700 fluorescence intensity (a.u.)
GCTGAAAATTCACCGTGGCGAAAAATCCGGGATTTTTTTTCGGAGTCACCTAGTGCAG | 8810 fluorescence intensity (a.u.)
TGTACTTCCTCTGTTACATATTGCTGAGATTGCTCTTCCTCGGAGTCACCTAGTGCAG | 8170 fluorescence intensity (a.u.)
AGATCTCCCCTCCGCCTCGTCTCGTCTCGTCTCGGTCTCTCGGAGTCACCTAGTGCAG | 9300 fluorescence intensity (a.u.)
GATATCTGGTGGTTTTGGGATGTCAATTAAACTCGACACGCGGAGTCACCTAGTGCAG | 8860 fluorescence intensity (a.u.)
CGCCCATTCCAAAACCCTCCGCCGCCGCCGCCGCCGCCGCCGGAGTCACCTAGTGCAG | 8930 fluorescence intensity (a.u.)
TCCTGTGGTGCCCCATGTCGCTCGGGTACTTCCTCAGCACCGGAGTCACCTAGTGCAG | 9050 fluorescence intensity (a.u.)
TCATCATGTATAATACTATTTGTTATTGTATAGCTAGCTTCGGAGTCACCTAGTGCAG | 10500 fluorescence intensity (a.u.)
GTTGACGGGGTTTGTGAGGTGTGGCGGTGACTTGGAAAGACGGAGTCACCTAGTGCAG | 10100 fluorescence intensity (a.u.)

Sequence | binding signal
TGTAACTGCTCACACTCTTTGCTCTAATCATATGGTTAATCGGAGTCACCTAGTGCAG | 8650 fluorescence intensity (a.u.)
CCTCTCTCCTCTTTTTTTCCTCATCCGTGCGCGATACTGCCGGAGTCACCTAGTGCAG | 8410 fluorescence intensity (a.u.)
CCATTTTCACTCATGTTTCCACCCACCTATTTTACCCTAGCGGAGTCACCTAGTGCAG | 12700 fluorescence intensity (a.u.)
GTTCATGGTCTCGCTGCCATCCTCTTCCTGCATGTCTTCTCGGAGTCACCTAGTGCAG | 9310 fluorescence intensity (a.u.)
ATGCAACACAATGGCTCCTGCTCCTCGTCGTCTTCCTCGTCGGAGTCACCTAGTGCAG | 8490 fluorescence intensity (a.u.)
CTTTGGGAGGGCGGCAGGCGATTAGATTTGTAAATTTTCACGGAGTCACCTAGTGCAG | 8520 fluorescence intensity (a.u.)
GATCTATTCTGAGTCTGCTGTGCTCCATTTCTCATTCAAACGGAGTCACCTAGTGCAG | 9940 fluorescence intensity (a.u.)
TTTTAGGTTTTTGCTTGTAACGTTTGACCACTCGTCTTATCGGAGTCACCTAGTGCAG | 8510 fluorescence intensity (a.u.)
CTTTGTGTTGCCTTGTTGTTGGTGTCGCGCGCCCGCCATGCGGAGTCACCTAGTGCAG | 10100 fluorescence intensity (a.u.)
TGGTGCTCGGGCCTGTTATTTAGTTGGACTTGGACGCCGGCGGAGTCACCTAGTGCAG | 9580 fluorescence intensity (a.u.)
TGTCAAAGCTGGAATGCTATTATTTTACCACAAATTGCAACGGAGTCACCTAGTGCAG | 8980 fluorescence intensity (a.u.)
CTCATTTTATTTCGTAGTTTTTACGTAGGCAGAGGGCCATCGGAGTCACCTAGTGCAG | 8560 fluorescence intensity (a.u.)
ACTCCTCTTGCACTCCAGTAACTCGCTTCTGTTTTGACCCCGGAGTCACCTAGTGCAG | 8490 fluorescence intensity (a.u.)
GGGCGGGTCAAGGCCGTCGCGATCACGCACCGCAACCTCACGGAGTCACCTAGTGCAG | 8750 fluorescence intensity (a.u.)
ATACTGAAAACCTGCTAGTTTGTTGCTCTATTCTACAGCTCGGAGTCACCTAGTGCAG | 8990 fluorescence intensity (a.u.)
ACTCCGCCCGCAACCTCCGCTCTCTGTCTCGCGGTGACCTCGGAGTCACCTAGTGCAG | 9660 fluorescence intensity (a.u.)
CTGAAGATGTAAGTGTGTTCAATCATGATTCCTTGTTTCTCGGAGTCACCTAGTGCAG | 8750 fluorescence intensity (a.u.)
CGTGAGGAATGGGATTTTTATTTTGCTGGTTACTGTTTGACGGAGTCACCTAGTGCAG | 10000 fluorescence intensity (a.u.)
ACTGGCCATTGCTCCTCTCCTCCCACTCTTCTTCTCCATCCGGAGTCACCTAGTGCAG | 8390 fluorescence intensity (a.u.)
AGCGGAGGGGAGGGGATCCTGGTGCGTCTTCTTTCTGATTCGGAGTCACCTAGTGCAG | 11500 fluorescence intensity (a.u.)
AGGCGATGCGAACCATGACTTTCGAACACACCCTTATTCTCGGAGTCACCTAGTGCAG | 8100 fluorescence intensity (a.u.)

Some of the entries above, reformatted:

| Sequence | binding signal |
| --- | --- |
| TGTAACTGCTCACACTCTTTGCTCTAATCATATGGTTAATCGGAGTCACCTAGTGCAG | 8650 fluorescence intensity (a.u.) |
| CCATTTTCACTCATGTTTCCACCCACCTATTTTACCCTAGCGGAGTCACCTAGTGCAG | 12700 fluorescence intensity (a.u.) |
| CTTTGGGAGGGCGGCAGGCGATTAGATTTGTAAATTTTCACGGAGTCACCTAGTGCAG | 8520 fluorescence intensity (a.u.) |
| TTTTAGGTTTTTGCTTGTAACGTTTGACCACTCGTCTTATCGGAGTCACCTAGTGCAG | 8510 fluorescence intensity (a.u.) |
| CTGAAGATGTAAGTGTGTTCAATCATGATTCCTTGTTTCTCGGAGTCACCTAGTGCAG | 8750 fluorescence intensity (a.u.) |

The list continues:

Sequence | binding signal
TCTGCCTTGAAGTGGTACCGTGGGTGGGAGGGTAGTTATGCGGAGTCACCTAGTGCAG | 11500 fluorescence intensity (a.u.)
CACCGCCGCAGCCCAAGCCCACCACCACCACCGCCGCCGCCGGAGTCACCTAGTGCAG | 9060 fluorescence intensity (a.u.)
GAATTTGTGCTCTGTGATGTGAATGTGGAATATTTTTGTGCGGAGTCACCTAGTGCAG | 11000 fluorescence intensity (a.u.)
ATATCAACCCCACACCCTTGTTTACGCTTTTCATAAGCTACGGAGTCACCTAGTGCAG | 8110 fluorescence intensity (a.u.)
TCTATCATCTCAAAGCTGATCGTTTTACAGTATATGATATCGGAGTCACCTAGTGCAG | 8350 fluorescence intensity (a.u.)
CCGGATGGGGACTATGTTTGGAGGTGGGTGTTGGGAACCACGGAGTCACCTAGTGCAG | 9200 fluorescence intensity (a.u.)
GCCATTTATTGCTCGTTCTTCACCTCTTCCGTCTTTGAGTCGGAGTCACCTAGTGCAG | 10000 fluorescence intensity (a.u.)
CACTTGCTTTCACATATTTCCATCGTTAAATAGTACTGTACGGAGTCACCTAGTGCAG | 8940 fluorescence intensity (a.u.)
TTTGGGGCGCGGGTGGGTGGCTGGGTGCGCGTCGATCGTGCGGAGTCACCTAGTGCAG | 10900 fluorescence intensity (a.u.)
TCTTGTATGGAGTACTTATTTTTGTGTGATTAATTTTTTTCGGAGTCACCTAGTGCAG | 8180 fluorescence intensity (a.u.)
ACCATCTGCCATTCCTGTTGGTGCTAGCTTATCTAACATTCGGAGTCACCTAGTGCAG | 8460 fluorescence intensity (a.u.)
TCTTTCCTCTCTATCTCTCTTCGTTTTGTTTTTTCGCTTCCGGAGTCACCTAGTGCAG | 11700 fluorescence intensity (a.u.)
ATGTAAGTTAAGTTGTAACTCCTACTCTCTCTTTTCTTCTCGGAGTCACCTAGTGCAG | 8110 fluorescence intensity (a.u.)
AACGATGTGCACTCCTTCTCCGTCTCCTTCGTCTTCGCCACGGAGTCACCTAGTGCAG | 8980 fluorescence intensity (a.u.)
CTCTTAAAATTTCTCTTTCTGCCTTTTCACATTTCTGGGGCGGAGTCACCTAGTGCAG | 11600 fluorescence intensity (a.u.)
CTCTATGCGCTGCCTCATCCATTTCTGATTTCTCCTTTCTCGGAGTCACCTAGTGCAG | 12400 fluorescence intensity (a.u.)
CACCACCGTCGTCGCCATGCTCCTTCCTTTCTTCGGCAACCGGAGTCACCTAGTGCAG | 8060 fluorescence intensity (a.u.)
AGTGGGCAGAGTTTATATTAATAGTGTTCACATATGTAGACGGAGTCACCTAGTGCAG | 8150 fluorescence intensity (a.u.)
GGCTATGCTACTACCCGCAGCGATTTTTTTACATTTTTTACGGAGTCACCTAGTGCAG | 8820 fluorescence intensity (a.u.)
CGGTGATTGATTTCAGATTTGAGTGGTTGATTACAACCTTCGGAGTCACCTAGTGCAG | 9150 fluorescence intensity (a.u.)
ATTACATGTTTTGCACTTCCTGTGTAATATTACTGGTTTTCGGAGTCACCTAGTGCAG | 8920 fluorescence intensity (a.u.)
